From paper PMC9925823
These are yes or no findings as the source states them, for the method shown.

Amino acid sequences for entries named in this document (tags omitted). Residues count along the entry.
UniProt P42081, residues 24-329: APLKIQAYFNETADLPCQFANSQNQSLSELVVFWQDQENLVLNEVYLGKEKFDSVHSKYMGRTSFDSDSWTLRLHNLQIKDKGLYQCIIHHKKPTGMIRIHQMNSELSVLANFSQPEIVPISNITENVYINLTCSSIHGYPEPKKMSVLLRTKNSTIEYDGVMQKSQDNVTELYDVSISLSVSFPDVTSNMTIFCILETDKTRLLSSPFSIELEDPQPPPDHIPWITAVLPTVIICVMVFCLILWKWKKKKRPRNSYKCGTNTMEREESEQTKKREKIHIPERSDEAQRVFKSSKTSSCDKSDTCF

Target: endogenous EGFR with a C-terminal SNAP tag (genome-edited SUM159 cells) (human (endogenous in SUM159)) (UniProt P00533)
Assay: two-colour single-molecule tracking (TIRF) in live cells; SUM159 cells genome-edited for EGFR-SNAP, transiently expressing HaloTag-tagged proteins, EGF stimulation; fraction of Halo tracks that interact with EGFR-SNAP

For “HaloTag-tagged CD86, transiently expressed (from UniProt P42081 24-329) (receptor)”, the binding was “no binding”.
